No constants are given. Whether binding was seen depends on the method and setting. For part of these data: Binding can be weak; no strength is given. For part of these data: In cells and extracts the contact can be indirect. For part of these data: Tags and fused reporters may be left off the sequences shown. Blank lines part the entries; values can stand above or below the binder they belong to.
Key:
BIR1-CFP (Arabidopsis) [1] = experiment: FRET or BRET; FRET by acceptor photobleaching, CFP donor and YFP acceptor, transient expression in N. benthamiana leaves; time courses after flg22 (1 μM or 100 nM)
BIR1-CFP (Arabidopsis) [2] = experiment: condition: only 3 min after addition of flg22 (1 μM); FRET or BRET; FRET by acceptor photobleaching, CFP donor and YFP acceptor, transient expression in N. benthamiana leaves; 3 min after addition of flg22 (1 μM)
[3] = target: BIR1-cYFP (in Arabidopsis mesophyll protoplasts) (Arabidopsis); experiment: split reporter; BiFC in Arabidopsis Col-0 mesophyll protoplasts, confocal imaging two days after transformation
[4] = target: BIR1-cYFP (BAK1-interacting receptor-like kinase 1) (Arabidopsis); experiment: split reporter; BiFC with nYFP and cYFP halves, transient expression in N. benthamiana leaves, confocal imaging; cells without flg22
[5] = target: BIR1-cYFP (BAK1-interacting receptor-like kinase 1) (Arabidopsis); experiment: split reporter; BiFC with nYFP and cYFP halves, transient expression in N. benthamiana leaves, confocal imaging on day 4 to 6 after infiltration; flg22 at various concentrations and times where indicated
[6] = target: BIR1 kinase domain-maltose-binding protein (BIR1 kinase domain, 303-620 aa) (Arabidopsis); experiment: pull-down; 10 μg BIR1 kinase domain-MBP on amylose resin, incubated with 2 μg of prey in 50 mM Tris-HCl pH 7.5, 100 mM NaCl, 0.1% Triton X-100 at 4°C for 4 hrs; washed with 200 mM NaCl buffer; immunoblot; both purified

B1: AtRGS1-YFP (protein, UniProt Q8H1F2 1-459)
chain: MASGCALHGGCPSDYVAVAISVICFFVLLSRSVLPCLIHKAPRTNSSSFWIPVIQVISSFNLLFSIMMSVNLLRFRTKHWWRYCYLWAVWIEGPLGFGLLMSCRITQAFQLYFIFVKKRLPPVKSYIFLPLVLLPWIFGAAIIHATKPLNDKCHMGLQWTFPVAGLHALYVLALIAFTRAVRHVEFRFDELRDLWKGILVSATSIVIWVTAFVLNEIHEEISWLQVASRFVLLVTGGILVVVFFSISSNQPLLSQISLKKRQNFEFQRMGQALGIPDSGLLFRKEEFRPVDPNEPLDKLLLNKRFRHSFMEFADSCYAGETLHFFEEVYEHGKIPEDDSIRRIYMARHIMEKFIVAGAEMELNLSHKTRQEILTTQDLTHTDLFKNALNEVMQLIKMNLVRDYWSSIYFIKFKEEESCHEAMHKEGYSFSSPRLSSVQGSDDPFYQEHMSKSSRCSSPG
binding (BIR1-CFP (Arabidopsis) [1]): binds | binding (BIR1-CFP (Arabidopsis) [2]): no binding

B4: AtGPA1 (Arabidopsis thaliana Gα subunit), recombinant (protein, UniProt P18064 1-383)
chain: MGLLCSRSRHHTEDTDENTQAAEIERRIEQEAKAEKHIRKLLLLGAGESGKSTIFKQIKLLFQTGFDEGELKSYVPVIHANVYQTIKLLHDGTKEFAQNETDSAKYMLSSESIAIGEKLSEIGGRLDYPRLTKDIAEGIETLWKDPAIQETCARGNELQVPDCTKYLMENLKRLSDINYIPTKEDVLYARVRTTGVVEIQFSPVGENKKSGEVYRLFDVGGQRNERRKWIHLFEGVTAVIFCAAISEYDQTLFEDEQKNRMMETKELFDWVLKQPCFEKTSFMLFLNKFDIFEKKVLDVPLNVCEWFRDYQPVSSGKQEIEHAYEFVKKKFEELYYQNTAPDRVDRVFKIYRTTALDQKLVKKTFKLVDETLRRRNLLEAGLL
binding [6]: binds

Continued, values first:

binding [3]: binds
B2: AtRGS1-nYFP (in Arabidopsis mesophyll protoplasts) (protein, UniProt Q8H1F2 1-459)
chain: B1 chain

binding [4]: no binding (only without flg22) | binding [5]: binds
B3: AtRGS1-nYFP (Arabidopsis thaliana Regulator of G Signaling 1) (protein, UniProt Q8H1F2 1-459)
chain: B1 chain

From publication PMC5302818
